Reference: US20200347135A1
Results are given in words; binding and its absence hold for the method and conditions named. Some entries that bind do so weakly or less than the wild type.

Chains of the proteins cited; added tags and fusions are not shown. Lines headed by an entry give the natural chain unless they say otherwise; changes in a name come on top.
UniProt Q15116: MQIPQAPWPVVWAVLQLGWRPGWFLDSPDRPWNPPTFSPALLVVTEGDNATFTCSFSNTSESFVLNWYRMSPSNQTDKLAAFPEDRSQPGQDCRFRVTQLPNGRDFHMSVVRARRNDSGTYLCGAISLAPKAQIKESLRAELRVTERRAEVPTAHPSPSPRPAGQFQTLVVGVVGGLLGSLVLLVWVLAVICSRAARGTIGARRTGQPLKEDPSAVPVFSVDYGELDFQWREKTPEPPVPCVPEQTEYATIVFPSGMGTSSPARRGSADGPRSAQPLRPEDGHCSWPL

Target: human PD-1 expressed on cells (human) (UniProt Q15116)
Test: flow cytometry on human PD-1 expressing cells

Row | binding | Binder
1 | binds | A31543 sdAb (VHH) VHH: QVQLVESGGGKVQPGGSLRLSCAASGGTLDYYAIGWFRQAPGKEREAVSCISSSDGSTYYADSVKGRFTISRDNAKNTVYLQMNSLKPGDTAVYHCATDRACGSSWLGAESWAQGTQVTVSS
2 | binds | AS06962 sdAb (VHH) VHH: QVHLVDSGGGLVQPGGSLRLSCAASGSITSRNTMGWYRQVPGKQRELVALIATFVTHYADSVKGRFTISRDNARKMVFLEMNSLQPEDTGAYYCYVDVSPYWGRGTQVTVSS

Target: recombinant PD-1 extracellular domain (ECD) protein (human) (UniProt Q15116)
Test: screen of sdAb supernatants: ELISA on PD-1 ECD protein and FACS on PD-1 stable cell line

Row | Binder | binding
3 | AS15140 sdAb (VHH) VHH: QVQLVESGGGSVQAGGSLRLSCTASAYTYSNICLGWLRQAPGGGLEAVATIYIADQTSYYADSVKGRFRISKDAAKNAVYLQMSSLRPEDTAMYYCASRYGSTCGEYLADYTSRAQGTQVTVSS | binds
4 | AS17049 sdAb (VHH) VHH: QVKLVESGGGSVQAGGYLRLSCAASGDTNNLNFRGWFRQAPGKEREGVAVITHSGSTYYAESVKGRFTISQDLAKNTMYLQMNSLKPEDTAMYYCAAADVWRISWSFVPELFSYWGQGTQVTVSS | binds
5 | A31543 sdAb (VHH) VHH: QVQLVESGGGKVQPGGSLRLSCAASGGTLDYYAIGWFRQAPGKEREAVSCISSSDGSTYYADSVKGRFTISRDNAKNTVYLQMNSLKPGDTAVYHCATDRACGSSWLGAESWAQGTQVTVSS | binds
6 | AS15152 sdAb (VHH) VHH: QMQLVESGGGSVQAGGSLRLSCAVSGYIYNRNFMGWFRQAPGKEREGVAAIYTGGPYTYYTDSVQGRFTISQDNTKNTVYLQMNSLKPEDTAMYYCVSDLSDGTWDQGRWNYWGQGTQVTVSS | binds
7 | AS25037 sdAb (VHH) VHH: EVQLAESGGGSVQAGGSLKLSCLASQWISSDCGMAWYRQAPGKERELVSRISSDDTTTYADSVKGRFTISQDSAKNTLYLQMNKLKTEDTGVYYCAAEAKSTITSLCYPLNYWGQGTQVTVSS | binds
8 | AS17118 sdAb (VHH) VHH: QVQLVESGGGSVQAGGSLRLSCAGSGFTFNNYAMGWFRQAPGKEREGIAGIWTGGGSTYYADSVKGRFTISEDVAKNTVYLQMDSLKPEDTAMYYCAAERWDYSDWRRLKRGDYNYWGQGTQVTVSS | binds
9 | AS15883 sdAb (VHH) VHH: QVHLMESGGGSVQAGGSLTLSCAASVFTDSNYCMAWFRQVPGKEREGVAIIDRYGGTMYKDSVKGRFTISKDTAKNILYLQMNSLKLEDTAMYYCAAAGYRGSSCDADSGYWGQGTQVTVSS | binds
10 | AS15881 sdAb (VHH) VHH: QVQLVESGGGSVQAGGSLRLSCAASGFTDSSYCGAWFRQVPGKEREGVAIIDRYGGTMYKDSVKGRFTISKDTAKNILYLQMNSLKLEDTAMYYCAAAEYRGSSCDAESGYWGQGTQVTVSS | binds
11 | AS15892 sdAb (VHH) VHH: QIQLVESGGGSVQAGGSLRLSCAASGFTDSSYCGAWFRQVPGKEREGVAIIDRYGGTMYKDSVKGRFTISKDTAKNILYLQMNSLKLEDTAMYYCAAAEYRGSSCDAESGYWGQGTQVTVSS | binds
12 | AS24984 sdAb (VHH) VHH: QVHLMESGGGSVPSGGSLRLSCAVSGSGYSYSRGCFAWFQQRPGKEREGVAIINMDGHTRYSDSVQGRFIISQDKAKNTLHLQMNTLRPDDTAMYYCAYDRSQCYVLSDRLRLPGTFSDWGQGTQVTVSS | binds
13 | AS25071 sdAb (VHH) VHH: EVQLAESGGGSVQSGGSLRLSCAVSGSGYSYSRGCFAWFQQRPGKEREGVAIINSDGHTAYSDSVQGRFIISQDKAKNTLYLQMNSLKPDDTAMYYCAYDRSQCYVLRDRLRLPDTFTDWGQGTQVTVSS | binds
14 | AS15899 sdAb (VHH) VHH: QVQLVESGGGSVQAGGSLRLSCAASGYTAGSLCMGWFRQAPGKEREGVAAIYTGGGSTYYADSVKGRFTISQDNAKNTVYLQMNSLKPEDTAQYYCGAGSREDYCDRGYIYDHWGQGTQVTVSS | binds
15 | AS25064 sdAb (VHH) VHH: QVQLVESGGGSVQAGGSLRLTCAATGYSWRPDCMGWYRQAAEKEREGVAVIDADGITSYADAAKGRFTISRDNNKITLYLQMLKPDDTGMYVCVVGWRVSSGGNCQFNDYWGQGTQVTVSS | binds
16 | AS15090 sdAb (VHH) VHH: QVQLVESGGGSVQAGGSLRLSCAASGYTYIPNCMAWFRQAPGKEREGVTLIFTGDGTSTYVDSVKGRFTISQDNAKNTVYLQMNSLKPEDTALYYCAAAERCSGSNDRISFWGISYWGQGTQVTVSS | binds
17 | AS06962 sdAb (VHH) VHH: QVHLVDSGGGLVQPGGSLRLSCAASGSITSRNTMGWYRQVPGKQRELVALIATFVTHYADSVKGRFTISRDNARKMVFLEMNSLQPEDTGAYYCYVDVSPYWGRGTQVTVSS | binds
18 | AS15872 sdAb (VHH) VHH: QVQLVESGGGLVQPGGSLTLSCAASGFTFSTAAMSWVRQVPEEGLEWVASIDSSGSRTYYAGSVKGRFTISRDNAKNTLYLQLNSLKAEDTAMYYCAKDHMSWLPRGQGTQVTVSS | binds
19 | AS25067 sdAb (VHH) VHH: QVHLMESGGGAVQTGGSLRLSCAVSGISISPDCMGWFRQAPGKKREAVTTIFANTGSARYGDSVKGRFTSSQGNAKNTLYLQMDSVKLDDTGTYYCAARFTGGDCFDHQPLAWRFWGQGTQVTVSS | binds
20 | AS15156 sdAb (VHH) VHH: QVQLVESGGGSAQAGGSLRLSCAVSGYIYNRNFMGWFRQVPGKVREGVAAIYTGTERTYYADSVKGRFTISQDNAKNTVYLQMNSLKPEDTAMYYCVADLRDGTWDTGVWNTWGQGTQVTVSS | binds
21 | AS15193 sdAb (VHH) VHH: QIQLVESGGGSAQAGGSLRLSCVVSGNIYNRNFMGWFRQAPGKVREGVAAIYTGTSRTYYADSVKGRFTISQDNAKNTVYLQMNSLKPEDTAMYYCAADLRDGFWDTGVWNTWGQGTQVTVSS | binds

The remaining lines, values ahead:

Row | binding | Binder
22 | binds | AS25396 sdAb (VHH) VHH: QVHLMESGGGSVQAGGSLRLSCVVSGISISPDCMGWFRQAPGKKREAVATIFTNTRRTRYGDSVKGRVTSSQGNAKNTLYLKMDNLRHDDTATYYCAARYTGGDCFNLDPLSWRFWGQGTQVTVSS
23 | binds | AS25149 sdAb (VHH) VHH: QVQLVESGGGSVQSGGSLKLSCAVSGSGYSYSRGCFAWFQQRPGKEREGVAIINSDGHTRYSDSVQGRFIISQDKAKNTLYLQMNSLKPDDAAMYYCAYDRNQCYVLLDRLRLPGTFSDWGQGTQVTVSS
24 | binds | AS25170 sdAb (VHH) VHH: QVKLVESGGGLVQSGGSLRLSCAVSGSGYSYSRGCFAWFQQRPGKEREGVAIINMDGHTMYSDLAQGRFIISQDKAKNTLYLQMNSLKPDDTAMYYCAYDRDQCYVLRDRLRLPDTFNDWGQGTQVTVSS
25 | binds | AS25156 sdAb (VHH) VHH: EVQLVESGGGSVQSGGSLRLSCAVSGSGYSYSRGCFAWFQQRPGKEREGVAIINSDGHTRYSDSVQGRFIISQDKAKNTLYLQMNSLKPDDTAMYYCAYDCSQCYVLRDRLRLPDTFTDWGQGTQVTVSS
26 | binds | AS25164 sdAb (VHH) VHH: EVQLVESGGGSVQSGGSLRLSCAVSGSGYSYNRGCFAWFQQRPGKEREGVAIINSDGHTTYGDSVQGRFIISQDKAKNTLDLQMNSLKPDDTAMYYCAYDRNQCYVLRDRLRLPDTFTDWGQGTQVTVSS
27 | binds | AS25119 sdAb (VHH) VHH: QVQLVESGGGSVQAGGPLRLTCAATGYSWRPDCMGWYRQAAEKEREGVAVIDADGITSYADAAKGRFTISRDNNNITLYLQMLKPDDTGMYVCVIGWRVSSGGNCQFNDYWGQGTQVTVSS
28 | binds | AS25487 sdAb (VHH) VHH: EVQLVESGGGLVQPGGSLRLSCAASGFTFSVWSMSWVRQAPGEGLEWVSTITGSGAQTYYASSVRGRFTTSRDNAKNTVYLQMNSLKSDDTAVYYCERGNGQTAMEALINPPERPGTQVTVSS
29 | binds | AS25222 sdAb (VHH) VHH: QIQLVESGGGSVQAGGSLRLSCAVTGISISPDCMGWFRQAPGKKREAVATIFTNTASTRYGDSVKGRFTSSQGNGKNTLYLQMDSLNVDDTATYYCAARYTGGNCFNLEPLAWHFWGQGTQVTVSS
30 | binds | AS25117 sdAb (VHH) VHH: EVQLAESGGGSVQAGGSLRLSCVISGTSISPDCMGWFRQAPGKKREAVMSIFTNTGSTRYGDSVKGRFTSSQGNAKNTLYLQMDSLKLDDTATYYCAARYTGGDCFNLEPLAWRFWGQGTQVTVSS
31 | binds | AS25457 sdAb (VHH) VHH: QVQLVESGGGSVQAGGSLRLSCAVSGISISPDCMGWFRQAPGKKREAVATIFTNTRSTRYGDSVKGRFTSSQGNAKNTLYLQMDSLKLDDTATYYCAARYTGGDCFNLEPVAWRFWGQGTQVTVSS
32 | binds | AS25115 sdAb (VHH) VHH: QVHLVESGGASVQAGGSLRLSCAATAYTASNYCMGWFRQSPGKEREAVASINDDGVTSYADSVKGRFTISQDSAKKTLYLQMNRLKPEDTAMYYCAATPDGYCYAERLSRWRYEFWGQGTQVTVSS
33 | binds | AS25435 sdAb (VHH) VHH: QVQLVESGGGSVQAGGSLRLSCAATAYTASFYCMGWFRQAPGKEREAVASINDDGVTMYADSVKGQFTISQDSATKTLYLQMNRLKPEDTAMYYCAATPEGYCYAERLSTWRYTFWGQGTQVTVSS
34 | binds | AS25095 sdAb (VHH) VHH: QVQLVESGGGLMQPGGSLRLSCAASGFTFSSYWMYWVRQAPGKGLEWVSVINRAGDSAWYADSVTGRFTISRDNAKNTVYLQMDSLKPEDTAMYYCAADSRGYGGDWYKLLSDFNYCGQGTQVTVSS

Target: human PD-1 expressed on cells (human) (UniProt Q15116)
Test: flow cytometry (FACS) on CHO cells expressing human PD-1

Row | binding | Binder
35 | binds | A31543 sdAb (VHH) VHH: QVQLVESGGGKVQPGGSLRLSCAASGGTLDYYAIGWFRQAPGKEREAVSCISSSDGSTYYADSVKGRFTISRDNAKNTVYLQMNSLKPGDTAVYHCATDRACGSSWLGAESWAQGTQVTVSS
36 | binds | AS06962 sdAb (VHH) VHH: QVHLVDSGGGLVQPGGSLRLSCAASGSITSRNTMGWYRQVPGKQRELVALIATFVTHYADSVKGRFTISRDNARKMVFLEMNSLQPEDTGAYYCYVDVSPYWGRGTQVTVSS
